Results as given in PubChem BioAssay (EPA / NIEHS).
Several values for one entry are separate records, joined by “and”; a condition that tells them apart may be missing. Equal values may be shown once. Inconclusive results, whose numbers are uncertain, are shown with a selection of clear calls. Where the call is inconclusive, the potency comes from a doubtful curve fit. A structure can be active in one record and inactive in another. Activity calls are given as the source filed them. The calls were made as follows: active = hit-call score of the fitted dose curve at least 0.9, where 1 is the maximum; inconclusive = response in the unintended direction; inactive = score below 0.9.

By UniProt entry, the sequences of proteins in these tests, tags left out. Where a name states a change or a piece, a line headed by the entry shows the natural chain unless it says otherwise.
UniProt P62508: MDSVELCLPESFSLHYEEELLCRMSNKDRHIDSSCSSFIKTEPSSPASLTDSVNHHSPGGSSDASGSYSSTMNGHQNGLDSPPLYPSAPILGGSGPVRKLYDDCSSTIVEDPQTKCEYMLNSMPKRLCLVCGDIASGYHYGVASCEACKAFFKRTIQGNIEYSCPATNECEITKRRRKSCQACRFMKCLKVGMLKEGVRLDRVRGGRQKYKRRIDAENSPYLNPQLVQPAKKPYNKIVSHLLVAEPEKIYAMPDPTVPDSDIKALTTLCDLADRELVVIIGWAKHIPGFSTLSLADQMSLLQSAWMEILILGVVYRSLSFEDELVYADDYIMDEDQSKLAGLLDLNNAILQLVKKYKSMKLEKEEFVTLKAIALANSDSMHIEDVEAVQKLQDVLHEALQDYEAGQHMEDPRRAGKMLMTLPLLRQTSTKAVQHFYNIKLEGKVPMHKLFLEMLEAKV
UniProt Q13133, whole entry, looked up: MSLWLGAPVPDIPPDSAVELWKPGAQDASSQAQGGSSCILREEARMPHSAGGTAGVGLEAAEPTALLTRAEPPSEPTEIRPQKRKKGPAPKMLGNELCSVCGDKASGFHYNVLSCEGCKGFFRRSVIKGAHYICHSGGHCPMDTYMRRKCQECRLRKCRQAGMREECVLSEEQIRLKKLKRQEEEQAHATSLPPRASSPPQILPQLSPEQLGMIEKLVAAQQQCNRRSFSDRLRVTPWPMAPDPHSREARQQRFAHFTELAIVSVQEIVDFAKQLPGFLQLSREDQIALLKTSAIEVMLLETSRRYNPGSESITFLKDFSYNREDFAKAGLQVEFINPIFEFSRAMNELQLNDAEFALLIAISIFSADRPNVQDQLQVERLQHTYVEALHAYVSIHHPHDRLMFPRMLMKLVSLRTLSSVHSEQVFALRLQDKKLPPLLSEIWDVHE
UniProt P43354, whole entry, looked up: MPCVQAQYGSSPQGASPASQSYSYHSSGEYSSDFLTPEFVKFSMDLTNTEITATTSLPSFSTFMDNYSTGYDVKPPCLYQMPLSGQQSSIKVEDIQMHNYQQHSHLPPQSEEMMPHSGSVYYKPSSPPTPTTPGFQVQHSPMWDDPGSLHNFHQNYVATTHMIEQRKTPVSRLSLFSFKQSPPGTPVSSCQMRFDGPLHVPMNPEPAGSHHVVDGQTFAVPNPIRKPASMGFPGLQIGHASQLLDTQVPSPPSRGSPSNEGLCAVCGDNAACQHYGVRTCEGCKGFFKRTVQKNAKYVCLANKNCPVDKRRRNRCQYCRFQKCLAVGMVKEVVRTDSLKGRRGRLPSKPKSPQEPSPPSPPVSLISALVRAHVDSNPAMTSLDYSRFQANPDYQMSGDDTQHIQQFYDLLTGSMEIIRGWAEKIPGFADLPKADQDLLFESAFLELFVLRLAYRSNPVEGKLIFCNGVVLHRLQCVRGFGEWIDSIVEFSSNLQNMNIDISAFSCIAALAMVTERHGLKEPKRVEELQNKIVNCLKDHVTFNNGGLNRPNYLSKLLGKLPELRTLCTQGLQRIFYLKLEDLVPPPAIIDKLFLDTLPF
UniProt Q07869: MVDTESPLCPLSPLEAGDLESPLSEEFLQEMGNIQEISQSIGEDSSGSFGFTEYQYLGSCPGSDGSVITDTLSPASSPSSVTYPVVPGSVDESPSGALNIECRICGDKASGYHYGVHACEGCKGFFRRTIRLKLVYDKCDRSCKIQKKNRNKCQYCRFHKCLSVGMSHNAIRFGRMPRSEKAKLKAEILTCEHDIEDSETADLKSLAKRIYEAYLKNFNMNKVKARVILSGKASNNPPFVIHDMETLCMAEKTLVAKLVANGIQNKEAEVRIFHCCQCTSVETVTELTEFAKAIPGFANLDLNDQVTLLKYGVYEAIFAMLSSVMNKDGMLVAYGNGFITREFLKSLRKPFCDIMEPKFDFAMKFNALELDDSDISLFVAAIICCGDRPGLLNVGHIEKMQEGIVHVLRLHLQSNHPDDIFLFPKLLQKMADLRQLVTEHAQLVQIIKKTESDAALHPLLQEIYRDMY
UniProt P10826, whole entry, looked up: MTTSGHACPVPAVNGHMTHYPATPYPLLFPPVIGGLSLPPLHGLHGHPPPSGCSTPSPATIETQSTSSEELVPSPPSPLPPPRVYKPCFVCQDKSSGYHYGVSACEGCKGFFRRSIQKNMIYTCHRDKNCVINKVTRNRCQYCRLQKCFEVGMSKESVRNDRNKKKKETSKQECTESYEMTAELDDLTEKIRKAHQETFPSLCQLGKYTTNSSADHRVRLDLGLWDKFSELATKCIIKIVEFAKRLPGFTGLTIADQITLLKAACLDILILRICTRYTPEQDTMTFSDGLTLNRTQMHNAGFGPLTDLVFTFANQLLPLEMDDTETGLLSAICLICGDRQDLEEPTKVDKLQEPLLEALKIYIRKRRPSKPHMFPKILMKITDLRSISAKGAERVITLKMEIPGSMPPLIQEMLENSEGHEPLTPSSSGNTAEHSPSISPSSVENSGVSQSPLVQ
UniProt P10276, whole entry, looked up: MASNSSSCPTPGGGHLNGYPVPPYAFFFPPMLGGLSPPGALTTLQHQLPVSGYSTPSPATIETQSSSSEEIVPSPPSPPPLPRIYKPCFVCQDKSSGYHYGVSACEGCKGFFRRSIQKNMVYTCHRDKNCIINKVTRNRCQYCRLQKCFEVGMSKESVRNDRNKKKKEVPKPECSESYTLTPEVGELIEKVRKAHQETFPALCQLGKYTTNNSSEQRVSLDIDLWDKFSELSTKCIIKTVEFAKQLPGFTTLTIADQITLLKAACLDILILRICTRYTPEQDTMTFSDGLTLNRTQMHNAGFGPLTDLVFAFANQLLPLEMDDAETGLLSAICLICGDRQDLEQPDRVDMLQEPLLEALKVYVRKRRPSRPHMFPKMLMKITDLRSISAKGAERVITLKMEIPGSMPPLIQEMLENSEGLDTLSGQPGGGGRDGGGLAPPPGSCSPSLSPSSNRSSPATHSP
UniProt P13631, whole entry, looked up: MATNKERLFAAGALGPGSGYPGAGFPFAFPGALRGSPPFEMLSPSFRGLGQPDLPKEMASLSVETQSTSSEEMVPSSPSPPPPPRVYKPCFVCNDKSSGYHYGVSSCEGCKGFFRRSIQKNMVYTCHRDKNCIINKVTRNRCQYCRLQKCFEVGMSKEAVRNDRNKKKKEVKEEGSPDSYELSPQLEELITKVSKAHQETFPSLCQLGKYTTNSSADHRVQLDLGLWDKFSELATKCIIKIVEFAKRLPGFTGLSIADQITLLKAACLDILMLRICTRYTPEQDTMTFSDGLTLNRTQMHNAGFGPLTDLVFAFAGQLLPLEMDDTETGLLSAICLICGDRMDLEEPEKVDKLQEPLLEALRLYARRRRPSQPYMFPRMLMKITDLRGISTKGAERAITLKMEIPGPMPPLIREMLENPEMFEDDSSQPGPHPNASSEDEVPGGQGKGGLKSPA
UniProt Q92753: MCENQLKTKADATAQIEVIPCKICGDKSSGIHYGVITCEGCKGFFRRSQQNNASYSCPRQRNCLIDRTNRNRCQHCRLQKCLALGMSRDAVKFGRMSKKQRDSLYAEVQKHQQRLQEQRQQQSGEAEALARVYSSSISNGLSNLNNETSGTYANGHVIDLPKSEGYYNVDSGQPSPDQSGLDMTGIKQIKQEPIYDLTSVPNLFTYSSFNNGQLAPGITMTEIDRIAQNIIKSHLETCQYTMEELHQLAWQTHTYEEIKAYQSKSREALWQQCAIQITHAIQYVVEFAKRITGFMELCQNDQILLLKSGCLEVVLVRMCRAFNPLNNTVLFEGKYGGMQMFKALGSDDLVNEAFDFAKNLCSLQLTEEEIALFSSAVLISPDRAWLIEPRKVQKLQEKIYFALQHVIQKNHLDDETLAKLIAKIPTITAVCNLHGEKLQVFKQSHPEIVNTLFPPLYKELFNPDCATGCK
UniProt P28702: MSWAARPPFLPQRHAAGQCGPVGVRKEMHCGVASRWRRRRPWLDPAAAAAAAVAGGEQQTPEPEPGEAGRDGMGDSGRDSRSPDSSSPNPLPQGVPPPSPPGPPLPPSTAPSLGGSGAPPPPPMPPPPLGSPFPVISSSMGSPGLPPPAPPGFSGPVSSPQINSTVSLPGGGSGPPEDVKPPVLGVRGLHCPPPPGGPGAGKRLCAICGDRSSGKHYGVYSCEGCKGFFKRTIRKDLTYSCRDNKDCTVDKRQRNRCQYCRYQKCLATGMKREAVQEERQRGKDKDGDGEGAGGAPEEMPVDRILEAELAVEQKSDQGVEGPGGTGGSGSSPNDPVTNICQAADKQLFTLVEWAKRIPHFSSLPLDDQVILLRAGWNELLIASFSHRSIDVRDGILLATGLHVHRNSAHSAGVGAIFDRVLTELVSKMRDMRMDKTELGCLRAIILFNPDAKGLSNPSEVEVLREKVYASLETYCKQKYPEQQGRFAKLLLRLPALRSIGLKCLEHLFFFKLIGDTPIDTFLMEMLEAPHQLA
UniProt P19793: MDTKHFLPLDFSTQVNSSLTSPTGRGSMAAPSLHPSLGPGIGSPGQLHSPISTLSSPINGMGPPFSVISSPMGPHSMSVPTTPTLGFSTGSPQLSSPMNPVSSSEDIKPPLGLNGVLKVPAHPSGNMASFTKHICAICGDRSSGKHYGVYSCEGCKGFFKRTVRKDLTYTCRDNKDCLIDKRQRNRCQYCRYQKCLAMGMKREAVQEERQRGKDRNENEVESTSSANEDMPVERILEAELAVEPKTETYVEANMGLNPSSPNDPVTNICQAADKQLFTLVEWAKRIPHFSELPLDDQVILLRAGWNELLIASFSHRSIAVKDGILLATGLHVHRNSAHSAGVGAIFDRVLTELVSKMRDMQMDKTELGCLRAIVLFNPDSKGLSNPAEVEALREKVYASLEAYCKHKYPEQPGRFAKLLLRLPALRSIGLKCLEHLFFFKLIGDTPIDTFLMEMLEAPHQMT
UniProt P55055, whole entry, looked up: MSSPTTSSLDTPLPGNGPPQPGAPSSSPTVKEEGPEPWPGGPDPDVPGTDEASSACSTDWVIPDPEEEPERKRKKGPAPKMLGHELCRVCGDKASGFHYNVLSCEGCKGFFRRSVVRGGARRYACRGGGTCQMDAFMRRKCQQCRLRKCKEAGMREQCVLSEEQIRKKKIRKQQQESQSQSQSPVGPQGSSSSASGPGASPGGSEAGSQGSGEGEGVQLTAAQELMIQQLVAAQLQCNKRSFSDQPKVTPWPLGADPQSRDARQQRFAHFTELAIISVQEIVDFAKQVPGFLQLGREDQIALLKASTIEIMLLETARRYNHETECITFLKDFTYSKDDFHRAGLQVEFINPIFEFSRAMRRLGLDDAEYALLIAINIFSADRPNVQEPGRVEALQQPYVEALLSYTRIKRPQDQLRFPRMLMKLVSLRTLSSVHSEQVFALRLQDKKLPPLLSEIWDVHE
UniProt P41235: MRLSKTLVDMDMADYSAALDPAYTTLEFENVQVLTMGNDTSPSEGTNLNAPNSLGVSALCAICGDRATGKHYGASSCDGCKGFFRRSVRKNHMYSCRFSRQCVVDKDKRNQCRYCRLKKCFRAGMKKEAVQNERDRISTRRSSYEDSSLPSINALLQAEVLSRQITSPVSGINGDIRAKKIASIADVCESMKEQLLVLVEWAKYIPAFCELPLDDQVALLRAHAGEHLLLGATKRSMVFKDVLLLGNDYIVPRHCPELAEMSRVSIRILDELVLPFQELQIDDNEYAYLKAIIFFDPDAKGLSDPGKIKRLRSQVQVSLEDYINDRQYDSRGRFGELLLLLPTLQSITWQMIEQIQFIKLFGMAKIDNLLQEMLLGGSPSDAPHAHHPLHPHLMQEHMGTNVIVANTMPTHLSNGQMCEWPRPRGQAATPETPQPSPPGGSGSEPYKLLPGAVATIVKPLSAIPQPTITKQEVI
UniProt P51449: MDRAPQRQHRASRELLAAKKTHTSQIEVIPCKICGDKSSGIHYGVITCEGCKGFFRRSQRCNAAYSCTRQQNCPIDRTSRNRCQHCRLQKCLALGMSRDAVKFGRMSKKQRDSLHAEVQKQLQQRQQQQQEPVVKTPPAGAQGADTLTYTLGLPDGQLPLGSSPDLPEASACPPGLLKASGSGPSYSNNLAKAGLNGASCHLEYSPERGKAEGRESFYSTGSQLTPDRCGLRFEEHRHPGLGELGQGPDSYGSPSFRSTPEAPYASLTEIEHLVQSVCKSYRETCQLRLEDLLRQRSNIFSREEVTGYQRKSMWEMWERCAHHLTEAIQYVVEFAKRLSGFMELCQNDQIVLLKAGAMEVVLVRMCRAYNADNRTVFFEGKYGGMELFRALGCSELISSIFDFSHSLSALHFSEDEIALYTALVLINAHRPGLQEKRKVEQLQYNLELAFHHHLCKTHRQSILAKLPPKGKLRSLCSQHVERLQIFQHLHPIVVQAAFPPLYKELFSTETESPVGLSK

Experiments:
[1] = ATG_M_19_TRANS: Attagene TRANS-FACTORIAL HepG2 Assay for M19 Transcription Factor (Internal Marker) (AID 2282974); details: HepG2 Attagene TRANS-FACTORIAL M19 internal marker reporter
Outline: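 Reporter mRNA induction was measured in transfected HepG2 cells 24 h after dosing. Endpoint fitted upward relative to DMSO and serves as a background control within the multiplexed TRANS panel.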

[2] = ATG_GAL4_TRANS: Attagene TRANS-FACTORIAL HepG2 Assay for GAL4 (Internal Marker) (AID 2282976); details: HepG2 Attagene TRANS GAL4 internal marker reporter
Outline: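 In transfected human HepG2 liver cells dosed 24 h, GAL4 reporter mRNA serves as a baseline marker. Detection by RT-PCR with fluorescent capillary electrophoresis, activity fitted upward relative to DMSO.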

[3] = molecular target: Estrogen-related receptor gamma (Homo sapiens) (UniProt P62508); test: ATG_ERRg_TRANS: Attagene TRANS-FACTORIAL HepG2 Assay for human Estrogen-Related Receptor gamma (ERRg) (AID 2282977); details: HepG2 Attagene TRANS reporter, ERRg transactivation;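 also: hits increase reporter signal over DMSO so potencies reflect activators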
Outline: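 Induction of reporter transcripts through a chimeric NR-Gal4 protein is quantified in transfected human HepG2 liver cells after 24 h chemical exposure, using RT-PCR with capillary electrophoresis detection and DMSO as baseline.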

[4] = molecular target: Oxysterols receptor LXR-alpha (Homo sapiens) (UniProt Q13133); test: ATG_LXRa_TRANS: Attagene TRANS-FACTORIAL HepG2 Assay for human Liver X Receptor alpha (LXRa) (AID 2282980); details: HepG2 Attagene TRANS reporter, LXRa transactivation
Outline: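 Chemical-induced reporter mRNA measured by RT-PCR with fluorescent labelling and capillary electrophoresis after 24 h dosing of transiently transfected HepG2 cells expressing exogenous NR-Gal4 chimeras; increases scored against DMSO baseline.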

[5] = molecular target: Nuclear receptor subfamily 4 group A member 2 (Homo sapiens) (UniProt P43354); test: ATG_NURR1_TRANS: Attagene TRANS-FACTORIAL HepG2 Assay for human Nuclear Receptor Related Protein 1 (NURR1) (AID 2282985); details: HepG2 Attagene TRANS reporter, mRNA readout
Outline: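 Chimeric NR-Gal4 fusion activity measured in HepG2 after 24 h treatment. Reporter transcripts detected by RT-PCR and capillary electrophoresis fluorescence; positive-direction curve fitting against DMSO.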

[6] = molecular target: human Peroxisome Proliferator-activated Receptor alpha (PPARa), PPARA (gene 5465) (UniProt Q07869); test: ATG_PPARa_TRANS: Attagene TRANS-FACTORIAL HepG2 Assay for human Peroxisome Proliferator-activated Receptor alpha (PPARa) (AID 2283001);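 as to AC50: potency for gain of reporter signal over DMSO so agonist or activator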
Outline: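 Cells (HepG2) are transfected with multiple reporter transcription units, exposed to chemical for 24 h, then total RNA is reverse-transcribed and amplified. Labelled products are quantified by capillary electrophoresis; induction is referenced to DMSO.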

[7] = molecular target: human Retinoic Acid Receptor beta (RARb), RARB (gene 5915) (UniProt P10826); test: ATG_RARb_TRANS: Attagene TRANS-FACTORIAL HepG2 Assay for human Retinoic Acid Receptor beta (AID 2283004)
Outline: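 Induction of reporter mRNA from a chimeric RARb-Gal4 construct was measured by RT-PCR, FAM labelling, HpaI digestion and capillary electrophoresis. Measurements followed 24 h compound treatment of transiently transfected human HepG2 liver cells, with DMSO as baseline.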

[8] = molecular target: Retinoic acid receptor alpha (Homo sapiens) (UniProt P10276); test: ATG_RARa_TRANS: Attagene TRANS-FACTORIAL HepG2 Assay for human Retinoic Acid Receptor alpha (RARa) (AID 2283005);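 as to AC50: potency for increased reporter signal meaning RARa activation over DMSO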
Outline: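 HepG2 cells transiently transfected with multiple reporter units expressing chimeric RARα-GAL4 fusion, with GAL4-UAS-driven reporters. After 24 h compound exposure, reporter mRNA induction quantified by RT-PCR and capillary electrophoresis with fluorescent labeling; gain-of-signal fitted relative to DMSO control.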

[9] = molecular target: human Retinoic Acid Receptor gamma (RARg), RARG (gene 5916) (UniProt P13631); test: ATG_RARg_TRANS: Attagene TRANS-FACTORIAL HepG2 Assay for human Retinoic Acid Receptor gamma (RARg) (AID 2283009);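 as to AC50: AC50 is for reporter induction above DMSO meaning RARg activation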
Outline: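 TRANS format measured activity of exogenous NR-GAL4 fusion (RARg) in transfected HepG2 liver cells after 24 h dosing. Induced reporter RNA was detected by RT-PCR/capillary electrophoresis fluorescence, analysed in the positive direction against DMSO.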

[10] = molecular target: human RAR-related Orphan Receptor beta (RORb), RORB (gene 6096) (UniProt Q92753); test: ATG_RORb_TRANS: Attagene TRANS-FACTORIAL HepG2 Assay for human RAR-related Orphan Receptor beta (RORb) (AID 2283010);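 as to AC50: potency for increased reporter mRNA meaning activation of RORb-Gal4 chimera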
Outline: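 Transfect HepG2 with multiple GAL4-UAS reporter transcription units; dose chemicals for 24 h; isolate RNA, reverse-transcribe and PCR-amplify reporter sequences; label, digest and resolve fragments by capillary electrophoresis; fit increases relative to DMSO.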

[11] = molecular target: human Retinoid X Receptor beta (RXRb), RXRB (gene 6257) (UniProt P28702); test: ATG_RXRb_TRANS: Attagene TRANS-FACTORIAL HepG2 Assay for human Retinoid X Receptor beta (RXRb) (AID 2283013)
Outline: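 Chimeric receptor-Gal4 activity was assessed in transiently transfected human HepG2 cells after 24 h exposure. Transcripts from GAL4-UAS reporters were quantified by fluorescent RT-PCR and capillary electrophoresis, with DMSO as negative control and baseline.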

[12] = molecular target: Retinoic acid receptor RXR-alpha (Homo sapiens) (UniProt P19793); test: OT_NURR1_NURR1RXRa_0480: Odyssey Thera (OT) 8-hour HEK293T Protein Complementation Assay for Nurr1/retinoid X receptor (RXR) (AID 2283385)
Outline: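 Interaction of bait and prey reconstitutes a functional reporter, whose fluorescence was measured in HEK293T cells dosed with compound for 8 hours. Signal gain relative to DMSO defined the single endpoint.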

[13] = molecular target: Retinoic acid receptor RXR-alpha (Homo sapiens) (UniProt P19793); test: OT_NURR1_NURR1RXRa_1440: Odyssey Thera (OT) 24-hour HEK293T Protein Complementation Assay for Nurr1/retinoid X receptor (RXR) (AID 2283386)
Outline: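 Steps: fragment-tagged Nurr1 and RXRα expressed in HEK293T; compounds added; after 24 h, complemented reporter quantified by fluorescence intensity; signal increase over DMSO fitted as the single endpoint.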

[14] = molecular target: Oxysterols receptor LXR-beta (Homo sapiens) (UniProt P55055); test: ATG_LXRb_TRANS: Attagene TRANS-FACTORIAL HepG2 Assay for human Liver X Receptor beta (LXRb) (AID 2282981); details: HepG2 Attagene TRANS GAL4-LXRb reporter, mRNA
Outline: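 Measures induction of a Gal4-driven reporter transcript in HepG2 cells expressing an exogenous LXRb-Gal4 fusion. Cells are exposed to compound for 24 h before RNA isolation and RT-PCR with capillary electrophoresis detection.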

[15] = molecular target: Hepatocyte nuclear factor 4-alpha (Homo sapiens) (UniProt P41235); test: ATG_HNF4a_TRANS: Attagene TRANS-FACTORIAL HepG2 Assay for human Hepatocyte Nuclear Factor 4 alpha (HNF4a) (AID 2282982); details: HepG2 HNF4a transactivation reporter, mRNA readout
Outline: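 In this trans-factorial format, a chimeric HNF4a-GAL4 fusion drives a GAL4-UAS reporter in transfected HepG2 liver cells. After 24 h treatment, reporter mRNA induction is measured by RT-PCR with capillary electrophoresis, relative to DMSO.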

[16] = molecular target: human RAR-related Orphan Receptor gamma (RORg), RORC (gene 6097) (UniProt P51449); test: ATG_RORg_TRANS: Attagene TRANS-FACTORIAL HepG2 Assay for human RAR-related Orphan Receptor gamma (RORg) (AID 2283011);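 as to AC50: potency for induction of reporter transcripts above DMSO so activators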
Outline: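 Reporter transcripts from a transfected RORg-GAL4 chimera in HepG2 cells were quantified 24 h after dosing by RT-PCR, 6-FAM labelling, HpaI digestion and capillary electrophoresis; increases over DMSO baseline were fitted.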

[17] = TOX21_p53_BLA_p2_viability: Viability Assessment in the Tox21 HCT-116 p53 Agonism Beta-lactamase Assay, Phase 2 (AID 2283591);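 also: compound exposure lasted 16 h at 37 °C; actives lower the ATP signal meaning cytotoxicity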
Outline: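 HCT-116 p53-bla cells (4000/well) rested 5 h at 37C, then received compounds in DMSO (217-fold dilution) for 16 h at 37C, 5% CO2. After the CCF4 read, CellTiter-Glo was added; ATP luminescence was read after 30 min at room temperature.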

[18] = TOX21_p53_BLA_p3_viability: Viability Assessment in the Tox21 HCT-116 p53 Agonism Beta-lactamase Assay, Phase 3 (AID 2283593);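 also: cells exposed to compound for 16 h before reading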
Outline: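 HCT-116 cells (4000/well) rested 5 h at 37C, then got DMSO compounds by pin tool (217-fold dilution) for 16 h at 37C, 5% CO2. After the bla read, CellTiter-Glo was added and luminescence read at 30 min, room temperature.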

[19] = TOX21_p53_BLA_p4_viability: Viability Assessment in the Tox21 HCT-116 p53 Agonism Beta-lactamase Assay, Phase 4 (AID 2283597);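 also: hits lower the luminescence signal meaning cytotoxicity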
Outline: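 Cytotoxicity as reduced cellular ATP (CellTiter-Glo luminescence, 30 min room temperature), measured in the same wells following the CCF4 FRET p53 reading. Human HCT-116 cells received compounds in DMSO (217-fold dilution) for 16 h.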

O=C=Nc1ccccc1
outcome [1]: inactive
outcome [2]: inactive
outcome [3]: inactive
AC50 [4]: inconclusive: 25.4 µM
AC50 [5]: inconclusive: 25.4 µM
AC50 [6]: inconclusive: 25.4 µM
AC50 [7]: inconclusive: 25.4 µM
outcome [8]: inactive
AC50 [9]: inconclusive: 25.4 µM
outcome [10]: inactive
AC50 [11]: inconclusive: 25.4 µM
AC50 [12]: inconclusive: 22.6 µM
outcome [13]: inactive

COP(N)(=S)OC
AC50 [3]: inconclusive: 100 µM
AC50 [4]: inconclusive: 169 µM
AC50 [14]: inconclusive: 100 µM
AC50 [15]: inconclusive: 0.0976 µM
AC50 [5]: inconclusive: 100 µM
AC50 [6]: inconclusive: 100 µM
AC50 [7]: inconclusive: 3.19 µM
AC50 [8]: inconclusive: 100 µM
AC50 [9]: inconclusive: 100 µM
AC50 [10]: inconclusive: 100 µM
outcome [16]: inactive
outcome [11]: inactive

N#Cc1ccccc1Cl
AC50 [1]: inconclusive: 100 µM
AC50 [2]: inconclusive: 100 µM
AC50 [3]: inconclusive: 100 µM
AC50 [4]: inconclusive: 0.0657 µM
AC50 [15]: inconclusive: 100 µM
AC50 [5]: inconclusive: 100 µM
outcome [6]: inactive
AC50 [7]: inconclusive: 179 µM
outcome [8]: inactive
AC50 [9]: inconclusive: 180 µM
outcome [10]: inactive
AC50 [16]: inconclusive: 100 µM
outcome [11]: inactive

CC(C)C1(C)N=C(c2nc3ccccc3cc2C(=O)O)NC1=O (stereo not drawn)
AC50 [1]: inconclusive: 1.29 µM
outcome [7]: inactive
outcome [8]: inactive
outcome [9]: inactive
outcome [10]: inactive
outcome [16]: inactive
AC50 [12]: inconclusive: 50 µM
AC50 [13]: inconclusive: 50 µM
AC50 [17]: inconclusive: 247 nM
AC50 [18]: inconclusive: 46.1 µM and inconclusive: 46.4 µM
AC50 [19]: inconclusive: 46.4 µM

CCOc1nc(C(Cl)(Cl)Cl)ns1
outcome [1]: inactive
outcome [3]: inactive
AC50 [15]: inconclusive: 0.118 µM
AC50 [5]: inconclusive: 50 µM
outcome [7]: inactive
outcome [8]: inactive
outcome [9]: inactive
AC50 [13]: inconclusive: 50 µM
outcome [13]: inactive
AC50 [17]: inconclusive: 46100 nM
